Measured data: PubChem BioAssay AID686943 (Drosophila RNAi Screening Center, 2013)
Test: 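Knockdowns that increase or decrease active ERK after insulin receptor stimulation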 (primary screen). Cells: Drosophila S2R+ haemocyte-like cells expressing YFP-tagged ERK (Rolled). Reagents: long dsRNA against Drosophila genes. Conditions: insulin stimulation versus unstimulated cells; dose and duration not given. Measured: 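Per-plate z-scores of phospho-ERK immunostaining normalised to YFP-tagged ERK, measured with and without insulin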. Direction: replicate 1, z-score of dpERK with insulin and replicate 2, z-score of dpERK with insulin: higher = more active ERK per ERK-YFP after insulin.
In all, the deposit lists about 23,000 reagents; shown is a random part of those with a known target gene and a result. 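Extra replicates exist only for a retested subset of genes; insulin dose and duration not given; both raised and lowered dpERK matter.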 Names joined by + are all predicted targets of the reagent. Not all columns of the deposit are shown. Not given: the amount of reagent, the time to read-out.

How did the screen score CG30031 + deltaTry + gammaTry [SID104187414]?
replicate 1, z-score of dpERK with insulin: -0.2; replicate 2, z-score of dpERK with insulin: -1.71

For RASSF8 [SID104195499], what does the deposit list?
replicate 1, z-score of dpERK with insulin: 0.23; replicate 2, z-score of dpERK with insulin: 0.77

For Elp4 [SID104182791], how do the results read?
replicate 1, z-score of dpERK with insulin: -5.77; replicate 2, z-score of dpERK with insulin: -5.57

With CG5535 [SID104190306], how do the results read?
replicate 1, z-score of dpERK with insulin: 0.83; replicate 2, z-score of dpERK with insulin: -0.14

What is on record for regucalcin [SID104198700]?
replicate 1, z-score of dpERK with insulin: 1.11; replicate 2, z-score of dpERK with insulin: 0.87

Which result is listed for regucalcin [SID104200158]?
replicate 1, z-score of dpERK with insulin: -0.39; replicate 2, z-score of dpERK with insulin: -0.47

What is on record for CG17724 [SID104186479]?
replicate 1, z-score of dpERK with insulin: -1.57; replicate 2, z-score of dpERK with insulin: -0.43

For feo [SID104199190], how do the results read?
replicate 1, z-score of dpERK with insulin: -0.85; replicate 2, z-score of dpERK with insulin: 0.33

What is on record for nrv1 [SID104183174]?
replicate 1, z-score of dpERK with insulin: 3.35; replicate 2, z-score of dpERK with insulin: 2.53

For Mad [SID104180551], what was measured?
replicate 1, z-score of dpERK with insulin: 0.91; replicate 2, z-score of dpERK with insulin: 0.64

With CG4116 [SID104198140], what does the deposit list?
replicate 1, z-score of dpERK with insulin: 0.3; replicate 2, z-score of dpERK with insulin: 0.5

What is on record for Trf4-1 [SID104197567]?
replicate 1, z-score of dpERK with insulin: 0.99; replicate 2, z-score of dpERK with insulin: 0.37

How did the screen score CG43104 (retired record) [SID104185416]?
replicate 1, z-score of dpERK with insulin: -0.17; replicate 2, z-score of dpERK with insulin: 0.13

For SmydA-2 [SID104190088], what was measured?
replicate 1, z-score of dpERK with insulin: -0.79; replicate 2, z-score of dpERK with insulin: 0.27

With CG14262 [SID104194549], what was measured?
replicate 1, z-score of dpERK with insulin: -0.42; replicate 2, z-score of dpERK with insulin: -0.95

Sorted by “replicate 1, z-score of dpERK with insulin” (highest first): some entries from above.
Trf4-1 [SID104197567] → replicate 1, z-score of dpERK with insulin = 0.99; replicate 2, z-score of dpERK with insulin = 0.37
CG43104 (retired record) [SID104185416] → replicate 1, z-score of dpERK with insulin = -0.17; replicate 2, z-score of dpERK with insulin = 0.13
CG14262 [SID104194549] → replicate 1, z-score of dpERK with insulin = -0.42; replicate 2, z-score of dpERK with insulin = -0.95
SmydA-2 [SID104190088] → replicate 1, z-score of dpERK with insulin = -0.79; replicate 2, z-score of dpERK with insulin = 0.27

Further entries:
For CG34452 [SID104189179], what was measured?
replicate 1, z-score of dpERK with insulin: 0.07; replicate 2, z-score of dpERK with insulin: 0.44

What did the screen give for Bap170 [SID104184756]?
replicate 1, z-score of dpERK with insulin: 0.79; replicate 2, z-score of dpERK with insulin: -0.15

What is on record for Bap170 [SID104201476]?
replicate 1, z-score of dpERK with insulin: -0.11; replicate 2, z-score of dpERK with insulin: -0.1

For dind [SID104196086], what was measured?
replicate 1, z-score of dpERK with insulin: 0.39; replicate 2, z-score of dpERK with insulin: -0.02

With CG4325 [SID104198308], what was measured?
replicate 1, z-score of dpERK with insulin: 0; replicate 2, z-score of dpERK with insulin: -3.37

With CG33454 [SID104202272], what does the deposit list?
replicate 1, z-score of dpERK with insulin: -2.64; replicate 2, z-score of dpERK with insulin: 0.56

What is on record for CG7634 [SID104191635]?
replicate 1, z-score of dpERK with insulin: 0.23; replicate 2, z-score of dpERK with insulin: 0.87

For CG4781 [SID104184280], what was measured?
replicate 1, z-score of dpERK with insulin: 1.93; replicate 2, z-score of dpERK with insulin: 0.49

How did the screen score Elp5 [SID104188339]?
replicate 1, z-score of dpERK with insulin: -0.51; replicate 2, z-score of dpERK with insulin: 0.08

What did the screen give for Pvr [SID104182872]?
replicate 1, z-score of dpERK with insulin: -9.5; replicate 2, z-score of dpERK with insulin: -7.2

For CG34175 [SID104180216], what does the deposit list?
replicate 1, z-score of dpERK with insulin: -1.52; replicate 2, z-score of dpERK with insulin: -2.64

How did the screen score CG31380 [SID104195480]?
replicate 1, z-score of dpERK with insulin: -0.18; replicate 2, z-score of dpERK with insulin: -0.15

With sut1 [SID104187492], what does the deposit list?
replicate 1, z-score of dpERK with insulin: -0.19; replicate 2, z-score of dpERK with insulin: 1.02

What is on record for CG5493 + CG5327 [SID104186730]?
replicate 1, z-score of dpERK with insulin: 0.34; replicate 2, z-score of dpERK with insulin: 0.04

How did the screen score fax [SID104191137]?
replicate 1, z-score of dpERK with insulin: -0.42; replicate 2, z-score of dpERK with insulin: 0.17

For ttm2 [SID104188060], what does the deposit list?
replicate 1, z-score of dpERK with insulin: 0.32; replicate 2, z-score of dpERK with insulin: 0.89

What is on record for CG17191 [SID104194977]?
replicate 1, z-score of dpERK with insulin: -0.01; replicate 2, z-score of dpERK with insulin: 0.05

Which result is listed for CG15452 [SID104200315]?
replicate 1, z-score of dpERK with insulin: 0.28; replicate 2, z-score of dpERK with insulin: 0.03

How did the screen score CG1662 [SID104199546]?
replicate 1, z-score of dpERK with insulin: 0.9; replicate 2, z-score of dpERK with insulin: 0.26

Which result is listed for Snmp1 [SID104195960]?
replicate 1, z-score of dpERK with insulin: -0.56; replicate 2, z-score of dpERK with insulin: 0

What did the screen give for AttB [SID104186526]?
replicate 1, z-score of dpERK with insulin: -0.08; replicate 2, z-score of dpERK with insulin: 0.6

Which result is listed for RabGGTa [SID104191981]?
replicate 1, z-score of dpERK with insulin: -0.01; replicate 2, z-score of dpERK with insulin: -0.67

Which result is listed for yellow-f2 [SID104196164]?
replicate 1, z-score of dpERK with insulin: 0.93; replicate 2, z-score of dpERK with insulin: 0.5

Which result is listed for Rhau [SID104182992]?
replicate 1, z-score of dpERK with insulin: 1.29; replicate 2, z-score of dpERK with insulin: 0.16

What is on record for Nepl21 [SID104193925]?
replicate 1, z-score of dpERK with insulin: -1.58; replicate 2, z-score of dpERK with insulin: -0.42
